Results taken from patent US20240207427A1 (priority 2021, published 2024).

Assay: general procedure: peptide synthesis; 2-chloro-trityl chloride or rink acid; cellulose solid support for library; HATU/DIPEA
Details: conjugation step

Substance	conjugation yield	crude purity (method not given)	final purity (method not given)	conjugation yield (over two steps)	conjugation yield (over two steps+purification)
mp-Ala-Ser-Glu-PAB-Auristatin E	42.5%				
mp-D-Leu-Ala-Glu-PABC-MMAE		78.0%	98.6%	72%	71%
